The text below walks through data of the supplement of paper PMC8256030.

Molecules are shown by their SMILES. Several values for one entry are separate records, joined by “and”; a condition that tells them apart may be missing. Identical values can stand only once. The list shows a part of the results. This data set is noisy: repeats of one test often differ as much as different tests do.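 HEK293T cells were given each compound shortly before transfection with a reporter in which red mCherry is followed by the SARS-CoV-2 frameshift element and then GFP in the −1 frame, so GFP appears only after frameshifting.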

The experiment deals with SARS-CoV-2 -1 PRF reporter mCherry-FSE-GFP(-1). Nature of the experiment: percent effect, decrease of GFP/mCherry ratio (-1 PRF reporter) relative to controls; higher = stronger frameshift inhibition. Conditions: 10 µM; 24 h; HEK293T.
Turning to `CC(C)(C)C(=O)OCOP(=O)(COCCn1cnc2c(N)ncnc21)OCOC(=O)C(C)(C)C` [Hepsera], the percent effect came to 5.72%.
Next, `CN(C)CC/C=C1/c2ccccc2COc2ccc(CC(=O)O)cc21` [Patanol]: -0.527%.
For `CC(=O)Oc1ccccc1C(=O)Nc1ncc([N+](=O)[O-])s1` [nitazoxanide] the value was -4.38%; for `CCC(C)n1ncn(-c2ccc(N3CCN(c4ccc(OCC5COC(Cn6cncn6)(c6ccc(Cl)cc6Cl)O5)cc4)CC3)cc2)c1=O` (configuration not stated) [Itraconazole], -9.34%.
Next, `CN1CC[C@H](c2c(O)cc(O)c3c(=O)cc(-c4ccccc4Cl)oc23)[C@H](O)C1` [alvocidib]: -3.53%.
On to `O/N=C/c1cc[n+](CCC[n+]2ccc(/C=N/O)cc2)cc1` [trimedoxime bromide], for which the percent effect is -9.58%.
Next, `NC(=O)C1=C(O)[C@@]2(O)C(=O)C3=C(O)c4c(O)cccc4C[C@H]3C[C@H]2CC1=O` [incyclinide]: -9.32%; `Cc1ccccc1N1CCN(CCc2nnc3n2CCCC3)CC1`: -1.53%; `C#C[C@]1(OC(C)=O)CC[C@H]2[C@@H]3CCC4=C[C@@H](OC(C)=O)CC[C@@H]4[C@H]3CC[C@@]21C` [Etynodiol]: -4.28%.
For `OC[C@H]1O[C@@H](n2cnc3c2N=CNC[C@H]3O)C[C@@H]1O` [pentostatin] the value was -1.8%; for `O=C(O)c1ccc(NC(=O)[C@H](Cc2ccc(O)cc2)NC(=O)c2ccccc2)cc1` [Chymex], -2.01%; for `O=C(NN1CCCCCC1)NS(=O)(=O)c1ccc(Cl)cc1` [glypinamide], -0.896%.
For `COc1cc(/C=C/C(=O)N2CCN(CC(=O)NC(C)C)CC2)cc(OC)c1OC` [cinpropazide] the value was -6.36%; for `CCN(CC)C(=O)c1ccc(O)c(OC)c1` [etamivan], -0.143%.
With `CC1(C)S[C@@H]2[C@H](NC(=O)[C@H](NC(=O)N3CCNC3=O)c3ccccc3)C(=O)N2[C@H]1C(=O)O` [Azlin], the percent effect is -4.37% and -2%.
For `COc1ccc(C(=C(c2ccccc2)[N+](=O)[O-])c2ccc(OCCN3CCCC3)cc2)cc1` [nitromifene] the value was -5.85%; for `CCOc1cc(CC(=O)N[C@@H](CC(C)C)c2ccccc2N2CCCCC2)ccc1C(=O)O` [repaglinide], -1.46%.
